Values of other authors as cited in patent publication EP0138995B1, “REGULATION OF ENZYMES WHICH UTILIZE TETRAHYDROBIOPTERIN OR TETRAHYDROFOLATE COFACTORS WITH 6, 6-DISUBSTITUTED-TETRAHYDROPTERIDINES” (South Alabama Medical Science Foundation, priority 1983, dated 1984).
At least one structure is not confirmed: it was looked up by name or label, or the drawing left a doubt.

Assays:
[1] = one gram per day; cited from earlier work
[2] = cited from earlier work
[3] = humans 1-5 years, 2.5 mg BH4/kg, oral or i.v.; cited from earlier work

C[C@H](O)[C@H](O)[C@H]1CNc2nc(N)[nH]c(=O)c2N1 [l-BH4, tetrahydrobiopterin]
treatment of depression [1]: successfully treated | homovanillic acid in CSF ([2]; 2 mg BH4 (i.v.)/kg/day for 3 days, from 29 before, normal = 130): 44 ng/mL | hydroxyindoles in CSF ([2]; 2 mg BH4 (i.v.)/kg/day for 3 days, from 92 before): 147 ng/mL | effect on neurological symptoms (ptosis, ataxia) ([2]; up to 22 mg BH4 (p.o.)/kg, two patients): alleviation of the symptoms | time low plasma phenylalanine levels were maintained [3]: 1 to 2 days | time to decrease plasma phenylalanine levels to normal [3]: 3 to 4 h
